For eleven molecules, binding results are on record in US20130071410A1 (published 2013).

Amino acid sequences for entries named in this document (tags omitted). A change or cut given only in a name is not applied to a line headed by its entry.
UniProt Q16602: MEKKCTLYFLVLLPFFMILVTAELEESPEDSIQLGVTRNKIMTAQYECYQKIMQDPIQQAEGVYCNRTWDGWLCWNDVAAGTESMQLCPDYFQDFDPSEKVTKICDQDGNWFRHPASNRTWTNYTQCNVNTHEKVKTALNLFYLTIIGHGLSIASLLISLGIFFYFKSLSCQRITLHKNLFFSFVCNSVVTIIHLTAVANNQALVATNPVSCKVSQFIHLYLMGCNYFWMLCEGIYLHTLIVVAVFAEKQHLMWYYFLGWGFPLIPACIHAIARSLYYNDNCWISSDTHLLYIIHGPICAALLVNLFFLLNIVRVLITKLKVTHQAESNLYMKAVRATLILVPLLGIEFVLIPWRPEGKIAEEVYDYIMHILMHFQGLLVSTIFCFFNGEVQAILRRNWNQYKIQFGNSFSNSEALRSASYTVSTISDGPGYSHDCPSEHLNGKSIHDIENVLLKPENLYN

No constants are given. Whether binding was seen depends on the method and setting. Some results given as binding are weak or reduced against the parent protein; the word gives no strength.

Test [1] deals with soluble heterodimeric CGRP R ECD fused to human IgG1 Fc (human) (UniProt Q16602). Briefly: Biacore, antibody immobilized on CM5 chip.
Test [2] shares this target. Put plainly: Biacore; receptor captured by immobilized 3B6 (competitor). On the technique in general: Surface plasmon resonance follows binding to a sensor surface in real time, without labels.
The target is the same in test [3]. Briefly: Biacore; receptor captured by immobilized 4H6 (competitor).
For test [4] the target is unchanged. Briefly: Biacore; receptor captured by immobilized 9F5 (competitor).
For test [5] the target is unchanged. Put plainly: Biacore; receptor captured by immobilized 12G8 (competitor).
For test [6] the target is unchanged. Briefly: Biacore; receptor captured by immobilized 11D11 (competitor).
Test [7] has the same target. Briefly: Biacore; receptor captured by immobilized 34E3 (competitor).

B1: 34E3 (antibody, V domains shown)
VH: QITLKESGPTLVKPTQTLTLTCTFSGFSLSTSGVGVAWIRQPPGKALEWLALIYWTDDKRYSPSLKSRLTITKDTSKNQVVLRMTNMDPLDTATYFCAHRPGGWFDPWGQGTLVTVSS
VL: QSVLTQPPSMSAAPGQKVTISCSGSSSNIGNNYVSWYQQLPGTAPKLLIYDNNKRPSGIPDRFSGSKSGTSATLGITGLQTGDEANYCCGTWDIGLSVWVFGGGTKLTVL
Regarding B1, the binding result in test [1] is reported as “binds”.

B2: 33E4 (antibody, V domains shown)
VH: QVQLQQWGAGLLKPSETLSLSCAVYGGSFGGYYWSWIRQPPGKGLEWIGEINHSGGTKYNPSLKSRVTISVDTSKNQFSLKLSSVTAADTAVYFCARGDVVGFFDYWGQGTLVTVSS
VL: EIVMTQSPATLSVSPGERATLSCRASQSVRSNLAWYQQKPGQAPRLLIHDASPRTAGIPARFSGSGSGTEFTLTINSLQSEDFAVYYCQQYNYWTPITFGQGTRLEIK
In the case of B2, the binding result in test [2], in test [3], in test [4], in test [5] and in test [6] was “binds” each time.

B3: 3C8 (antibody, human IgG2, kappa, V domains shown)
VH: QVQLVESGGGVVQPGRSLRLSCAASGFTFSSYGMHWVRQAPGKGLEWVAVISYDGSHESYADSVKGRFTISRDISKNTLYLQMNSLRAEDTAVYFCARERKRVTMSTLYYYFYYGMDVWGQGTTVTVSS
VL: DIILAQTPLSLSVTPGQPASISCKSSQSLLHSAGKTYLYWYLQKPGQPPQLLIYEVSNRFSGVPDRFSGSGSGTDFTLKISRVEAEDVGIYYCMQSFPLPLTFGGGTKVEIKR
With B3, the binding entry in test [7] is reported as “binds”.

B4: 5F5 (antibody, human IgG2, kappa, V domains shown)
VH: QVQLVESGGGVVQPGRSLRLSCAASGFTFSSYGMHWVRQAPGKGLEWVAVISYDGSHESYADSVKGRFTISRDISKNTLYLQMNSLRAEDTAVYFCARERKRVTMSTLYYYFYYGMDVWGQGTTVTVSS
VL: DIILTQTPLSLSVTPGQPASISCKSSQSLLHSDGKTYLYWYLQKPGQPPQLLIYEVSNRFSGEPDRFSGSGSGTDFTLKISRVEAEDVGTYYCMQSFPLPLTFGGGTKVEIKR
For the molecule B4, in test [7], the binding result was “binds”.

B5: 12E8 (antibody, human IgG2, kappa, V domains shown)
VH: QVQLVESGGGVVQPGRSLRLSCAASGFTFSSYGMHWVRQAPGKGLEWVAVISYDGSHESYADSVKGRFTISRDISKNTLYLQMNSLRAEDTAVYFCARERKRVTMSTLYYYFYYGMDVWGQGTTVTVSS
VL: DITLTQTPLSLSVSPGQPASISCKSSQSLLHSDGRNYLYWYLQKPGQPPQLLIYEVSNRFSGLPDRFSGSGSGTDFTLKISRVEAEDVGIYYCMQSFPLPLTFGGGTKVEIKR
With B5, the binding result in test [7] is listed as “binds”.

B6: 12G8 (antibody, human IgG2, lambda, V domains shown)
VH: QVQLVESGGGVVQPGRSLRLSCAASGFTFSSFGMHWVRQAPGKGLEWVAVISFDGSIKYSVDSVKGRFTISRDNSKNTLFLQMNSLRAEDTAVYYCARDRLNYYDSSGYYHYKYYGLAVWGQGTTVTVSS
VL: QSVLTQPPSVSAAPGQKVTISCSGSSSNIGNNYVSWYQQLPGTAPKLLIYDNNKRPSGIPDRFSGSKSGTSATLGITGLQTGDEADYYCGTWDSRLSAVVFGGGTKLTVLG
With B6, the binding entry in test [1] and in test [7] was “binds” each time.

B7: 4E4 (antibody, human IgG2, lambda, V domains shown)
VH: QVQLVESGGGVVQPGRSLRLSCAASGFTFSSFGMHWVRQAPGKGLEWVAVISFDGSIKYSVDSVKGRFTISRDNSKNTLFLQMNSLRAEDTAVYYCARDRLNYYDSSGYYHYKYYGMAVWGQGTTVTVSS
VL: QSVLTQPPSVSAAPGQKVTISCSGSSSNIGNNYVSWYQQLPGTAPKLLIYDNNKRPSGIPDRFSGSKSGTSTTLGITGLQTGDEADYYCGTWDSRLSAVVFGGGTKLTVLG
Turning to B7, the binding result in test [7] was “binds”.

B8: 9D4 (antibody, human IgG2, lambda, V domains shown)
VH: QVQLVESGGGVVQPGRSLRLSCAASGFTFSSFGMHWVRQAPGKGLEWVAVISFDGSIKYSVDSVKGRFTISRDNSKNTLFLQMNSLRAEDTAVYYCARDRLNYYDSSGYYHYKYYGMAVWGQGTTVTVSS
VL: QSVLTQPPSVSAAPGQKVTISCSGSSSNIGNNYVSWYQQFPGTAPKLLIYDNNKRPSGIPDRFSGSKSGTSATLGITGLQTGDEADYYCGTWDSRLSAVVFGGGTKLTVLG
B8: in test [7], the binding entry was “binds”.

B9: 1E11 (antibody, human IgG2, lambda, V domains shown)
VH: QVQLVESGGGVVQPGRSLRLSCAASGFTFSSFGMHWVRQAPGKGLEWVAVISFDGSIKYSVDSVKGRFTISRDNSKNTLFLQMNSLRAEDTAVYYCARDRLNYYDSSGYYHYKYYGMAVWGQGTTVTVSS
VL: QSVLTQPPSVSEAPGQKVTISCSGSSSNIGNNYVSWYQQLPGTAPKLLIYDNNKRPSGIPDRFSGSKSGTSATLGITGLQTGDEADYYCGTWDSRLSAVVFGGGTKLTVLG
As to B9, the binding result in test [7] is “binds”.

B10: 2E7 (antibody, human IgG2, kappa, V domains shown)
VH: EVQLLESGGGLVQPGESLRLSCAASGFTFSSYAMSWVRQAPGKGLEWVSAISGSGGRTYYADSVKGRFTISRDNSKNTLYLQMNSLRAEDTAVYYCAKDQREVGPYSSGWYDYYYGMDVWGQGTTVTVSS
VL: DIQMTQSPSSLSASVGDRVTITCRASQGIRNDLGWFQQKPGKAPKRLIYAASSLQSGVPSRFSGSGSGTEFTLTISSLQPEDLATYYCLQYNIYPWTFGQGTKVEIKR
On to B10, for which the binding entry in test [7] was “binds”.

B11: 13H2 (antibody, human IgG2, kappa, V domains shown)
VH: EVQLVESGGGLVKPGGSLRLSCAASGYTFSTYSMNWVRQAPGKGLEWVSSISSSSSYRYYADSVKGRFTISRDNAKNSLYLQMSSLRAEDTAVYYCAREGVSGSSPYSISWYDYYYGMDVWGQGTTVTVSS
VL: DIQMTQSPSSLSASVGDRVTITCRASQGIRKDLGWYQQKPGKAPKRLIYGASSLQSGVPSRFSGSGSGTEFTLTISSLQPEDFATYYCLQYNSFPWTFGQGTKVEIKR
For B11, in test [7], the binding result is recorded as “binds”.
